These are yes or no findings as the source states them, for the method shown. Binding seen in cells or lysates may run through a third protein. Some binding calls cover weakened binding; strength is not graded here. Sequences can lack the tags named with a protein. One block for each binder: values may come before it.
Columns and labels:
[1] = target: Flag-RIP3 (UniProt Q9Y572); test: co-IP; HEK293T transiently transfected, 24 h, with or without TNFα (10 ng/ml) for the indicated time; IP with anti-Flag, 4 h at 4°C; IP lysis buffer (150 mM NaCl, 20 mM tris-HCl pH 7.5, 0.5% Triton X-100, 0.5% NP-40); Western blot
[2] = target: Flag-RIP1 (UniProt Q13546); test: as above
[3] = target: caspase 8, endogenous in HT29 (human (endogenous in HT29)) (UniProt Q14790); test: co-IP; cells treated with TNFα plus Smac mimetic (T/S); IP with anti-caspase 8 to isolate complex IIa; HT29 HSPA13+/+ or HSPA13−/− (Fig. 3E), semi-endogenous with Flag-HSPA13 (fig. S1D)

Sequences of proteins named here, by UniProt entry; tags and fusion partners are left off.
UniProt Q9Y572: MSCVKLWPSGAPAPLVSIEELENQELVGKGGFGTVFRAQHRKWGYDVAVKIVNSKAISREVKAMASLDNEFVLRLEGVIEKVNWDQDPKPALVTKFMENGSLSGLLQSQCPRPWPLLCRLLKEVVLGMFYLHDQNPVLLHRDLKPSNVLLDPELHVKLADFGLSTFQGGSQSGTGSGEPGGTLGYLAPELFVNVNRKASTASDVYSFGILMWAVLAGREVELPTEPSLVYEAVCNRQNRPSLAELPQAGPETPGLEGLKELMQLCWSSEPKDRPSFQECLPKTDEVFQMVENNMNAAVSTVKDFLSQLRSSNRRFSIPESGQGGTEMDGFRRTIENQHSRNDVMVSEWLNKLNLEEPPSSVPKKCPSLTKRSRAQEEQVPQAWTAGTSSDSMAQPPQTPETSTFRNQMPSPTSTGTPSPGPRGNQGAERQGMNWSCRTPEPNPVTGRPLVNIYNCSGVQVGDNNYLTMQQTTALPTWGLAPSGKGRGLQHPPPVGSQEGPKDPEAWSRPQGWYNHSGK
UniProt Q13546: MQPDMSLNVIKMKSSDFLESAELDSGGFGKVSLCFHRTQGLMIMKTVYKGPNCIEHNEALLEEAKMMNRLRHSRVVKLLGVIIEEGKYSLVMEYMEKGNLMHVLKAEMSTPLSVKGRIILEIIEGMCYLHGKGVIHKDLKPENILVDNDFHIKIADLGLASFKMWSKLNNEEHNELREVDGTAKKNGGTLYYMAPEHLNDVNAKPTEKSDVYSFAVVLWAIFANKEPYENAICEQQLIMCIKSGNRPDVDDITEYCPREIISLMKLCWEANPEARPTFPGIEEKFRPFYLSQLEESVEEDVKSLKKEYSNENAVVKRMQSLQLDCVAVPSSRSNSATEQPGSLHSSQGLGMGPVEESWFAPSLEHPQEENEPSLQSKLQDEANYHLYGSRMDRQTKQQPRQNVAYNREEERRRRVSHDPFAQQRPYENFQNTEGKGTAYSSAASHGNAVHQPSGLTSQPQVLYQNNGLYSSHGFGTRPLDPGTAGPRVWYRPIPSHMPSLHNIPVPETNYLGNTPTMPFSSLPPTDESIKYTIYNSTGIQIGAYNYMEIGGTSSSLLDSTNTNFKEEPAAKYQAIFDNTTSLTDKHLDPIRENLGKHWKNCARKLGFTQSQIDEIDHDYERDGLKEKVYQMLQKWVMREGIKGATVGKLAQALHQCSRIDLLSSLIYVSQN
UniProt Q14790: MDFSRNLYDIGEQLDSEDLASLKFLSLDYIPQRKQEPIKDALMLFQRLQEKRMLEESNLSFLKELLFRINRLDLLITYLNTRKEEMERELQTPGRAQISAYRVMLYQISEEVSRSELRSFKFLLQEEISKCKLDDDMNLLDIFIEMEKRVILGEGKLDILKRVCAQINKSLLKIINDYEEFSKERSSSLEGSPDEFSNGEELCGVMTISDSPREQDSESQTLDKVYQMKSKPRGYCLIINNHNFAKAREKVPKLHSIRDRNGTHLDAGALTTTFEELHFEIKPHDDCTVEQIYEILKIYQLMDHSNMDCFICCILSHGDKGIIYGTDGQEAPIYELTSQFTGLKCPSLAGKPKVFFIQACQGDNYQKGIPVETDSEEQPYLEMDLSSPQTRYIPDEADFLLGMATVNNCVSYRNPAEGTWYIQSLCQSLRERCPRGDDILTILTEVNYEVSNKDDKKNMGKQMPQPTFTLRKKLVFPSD

- binding [1]: no binding
- binding [2]: binds
B1: Myc-HSPA13 (protein, UniProt P48723 23-471)
chain: QQYLPLPTPKVIGIDLGTTYCSVGVFFPGTGKVKVIPDENGHISIPSMVSFTDNDVYVGYESVELADSNPQNTIYDAKRFIGKIFTAEELEAEIGRYPFKVLNKNGMVEFSVTSNETITVSPEYVGSRLLLKLKEMAEAYLGMPVANAVISVPAEFDLKQRNSTIEAANLAGLKILRVINEPTAAAMAYGLHKADVFHVLVIDLGGGTLDVSLLNKQGGMFLTRAMSGNNKLGGQDFNQRLLQYLYKQIYQTYGFVPSRKEEIHRLRQAVEMVKLNLTLHQSAQLSVLLTVEEQDRKEPHSSDTELPKDKLSSADDHRVNSGFGRGLSDKKSGESQVLFETEISRKLFDTLNEDLFQKILVPIQQVLKEGHLEKTEIDEVVLVGGSTRIPRIRQVIQEFFGKDPNTSVDPDLAVVTGVAIQAGIDGGSWPLQVSALEIPNKHLQKTNFN

- binding [3]: no binding
B2: Flag-HSPA13 (HT29, stable) (protein, UniProt P48723 23-471)
chain: B1 chain
